Measured values from paper PMC9688820.

Amino acid sequences for entries named in this document (tags omitted).
UniProt P36404: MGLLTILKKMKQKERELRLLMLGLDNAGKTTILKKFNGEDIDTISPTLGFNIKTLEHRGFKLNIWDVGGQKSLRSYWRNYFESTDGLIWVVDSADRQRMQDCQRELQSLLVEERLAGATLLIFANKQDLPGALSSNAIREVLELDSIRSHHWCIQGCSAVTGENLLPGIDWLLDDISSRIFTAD

Biological target: T1, HSV-1 UL43 protein, FLAG-tagged wild type (UL43-WT-FLAG) (herpes simplex virus 1 (HSV-1)) (UniProt P10227)
T1 sequence: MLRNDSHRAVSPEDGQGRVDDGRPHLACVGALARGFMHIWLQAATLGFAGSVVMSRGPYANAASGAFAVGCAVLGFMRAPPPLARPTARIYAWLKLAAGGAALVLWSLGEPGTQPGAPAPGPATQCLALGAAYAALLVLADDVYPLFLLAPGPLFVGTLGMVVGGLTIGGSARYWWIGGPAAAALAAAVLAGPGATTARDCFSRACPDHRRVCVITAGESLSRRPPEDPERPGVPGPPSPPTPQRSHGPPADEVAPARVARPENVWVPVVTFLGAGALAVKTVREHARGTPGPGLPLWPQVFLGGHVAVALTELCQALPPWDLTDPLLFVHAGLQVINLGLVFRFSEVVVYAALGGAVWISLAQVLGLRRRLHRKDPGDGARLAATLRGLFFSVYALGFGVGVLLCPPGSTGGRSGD
Experiment: affinity purification with mass spectrometry; differing bands of the SDS-PAGE gels cut out, digested with trypsin, MALDI-TOF-MS

## ARF-like 2 (ARL2) GTPase (from UniProt P36404 1-184)
  binding: binds

These are yes or no findings as the source states them, for the method shown. In cells and extracts the contact can be indirect. A yes stands for co-enrichment or nearness to the bait. Other partners may have been found. Where a sequence is shown, tags or fusion partners need not be part of it.
